Results published in the supplement of paper PMC12823440, “Inhibitors supercharge kinase turnover through native proteolytic circuits” (Nature, 2025).
Some of the results follow. Hit calls seldom repeat between salt and free forms of one compound.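 In K562 cells expressing nanoluciferase-fused kinases, luminescence was recorded at 4 h intervals between 2 and 18 h, normalized as percent of control with DMSO at 100% and a positive control at 0%. A significant (2 sigma) signal drop marks a time point as decreased. The authors' rule for a hit is not shown and takes in more than the number of time points.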

Protein sequences, listed by entry. Tags and fused reporters are not part of them. Lines headed by an entry give the natural chain unless they say otherwise; changes in a name come on top.
UniProt Q9Y616: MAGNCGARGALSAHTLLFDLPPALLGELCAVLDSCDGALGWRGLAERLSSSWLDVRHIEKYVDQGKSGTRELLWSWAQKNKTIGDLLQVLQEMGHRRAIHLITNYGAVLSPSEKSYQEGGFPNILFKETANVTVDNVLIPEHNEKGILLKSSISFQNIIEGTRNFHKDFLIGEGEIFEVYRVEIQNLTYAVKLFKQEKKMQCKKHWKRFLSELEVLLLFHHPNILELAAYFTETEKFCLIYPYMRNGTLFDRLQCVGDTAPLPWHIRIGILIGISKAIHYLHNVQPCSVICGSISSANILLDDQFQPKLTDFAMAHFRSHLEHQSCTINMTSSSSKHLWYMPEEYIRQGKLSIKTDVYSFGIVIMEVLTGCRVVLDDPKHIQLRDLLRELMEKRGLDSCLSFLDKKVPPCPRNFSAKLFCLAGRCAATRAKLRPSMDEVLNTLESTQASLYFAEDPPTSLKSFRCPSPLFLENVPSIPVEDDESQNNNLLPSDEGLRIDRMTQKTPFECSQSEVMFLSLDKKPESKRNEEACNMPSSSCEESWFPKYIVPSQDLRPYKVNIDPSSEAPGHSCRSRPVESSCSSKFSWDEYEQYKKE
UniProt P23458: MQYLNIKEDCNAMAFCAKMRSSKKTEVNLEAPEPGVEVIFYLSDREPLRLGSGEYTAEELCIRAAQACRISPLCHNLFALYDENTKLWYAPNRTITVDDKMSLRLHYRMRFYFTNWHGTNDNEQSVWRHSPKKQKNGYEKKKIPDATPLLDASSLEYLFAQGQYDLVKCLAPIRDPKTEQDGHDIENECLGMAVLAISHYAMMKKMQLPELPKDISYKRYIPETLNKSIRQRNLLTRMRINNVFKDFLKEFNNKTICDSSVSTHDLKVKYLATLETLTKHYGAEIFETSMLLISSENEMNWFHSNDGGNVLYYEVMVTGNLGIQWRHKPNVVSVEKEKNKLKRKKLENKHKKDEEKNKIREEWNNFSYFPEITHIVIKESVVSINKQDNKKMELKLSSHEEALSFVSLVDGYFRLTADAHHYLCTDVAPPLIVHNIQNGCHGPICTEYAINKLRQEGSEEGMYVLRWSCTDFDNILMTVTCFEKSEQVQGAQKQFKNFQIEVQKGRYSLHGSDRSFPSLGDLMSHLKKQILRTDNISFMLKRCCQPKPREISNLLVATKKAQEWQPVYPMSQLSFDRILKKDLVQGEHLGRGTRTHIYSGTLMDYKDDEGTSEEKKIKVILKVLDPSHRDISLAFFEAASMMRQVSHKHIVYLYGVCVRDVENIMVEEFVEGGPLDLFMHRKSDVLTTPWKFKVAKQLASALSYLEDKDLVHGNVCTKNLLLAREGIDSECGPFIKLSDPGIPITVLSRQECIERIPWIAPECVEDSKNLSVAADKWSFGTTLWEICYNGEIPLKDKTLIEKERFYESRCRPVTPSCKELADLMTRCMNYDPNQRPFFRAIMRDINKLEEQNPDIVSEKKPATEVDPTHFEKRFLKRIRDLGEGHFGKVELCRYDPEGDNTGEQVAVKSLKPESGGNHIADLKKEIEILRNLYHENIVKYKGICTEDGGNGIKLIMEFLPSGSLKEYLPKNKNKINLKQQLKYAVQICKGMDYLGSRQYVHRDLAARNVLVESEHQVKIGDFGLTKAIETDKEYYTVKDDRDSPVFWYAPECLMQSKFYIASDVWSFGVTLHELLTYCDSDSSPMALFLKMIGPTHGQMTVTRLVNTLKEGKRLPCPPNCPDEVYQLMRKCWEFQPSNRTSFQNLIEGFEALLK
UniProt P07948: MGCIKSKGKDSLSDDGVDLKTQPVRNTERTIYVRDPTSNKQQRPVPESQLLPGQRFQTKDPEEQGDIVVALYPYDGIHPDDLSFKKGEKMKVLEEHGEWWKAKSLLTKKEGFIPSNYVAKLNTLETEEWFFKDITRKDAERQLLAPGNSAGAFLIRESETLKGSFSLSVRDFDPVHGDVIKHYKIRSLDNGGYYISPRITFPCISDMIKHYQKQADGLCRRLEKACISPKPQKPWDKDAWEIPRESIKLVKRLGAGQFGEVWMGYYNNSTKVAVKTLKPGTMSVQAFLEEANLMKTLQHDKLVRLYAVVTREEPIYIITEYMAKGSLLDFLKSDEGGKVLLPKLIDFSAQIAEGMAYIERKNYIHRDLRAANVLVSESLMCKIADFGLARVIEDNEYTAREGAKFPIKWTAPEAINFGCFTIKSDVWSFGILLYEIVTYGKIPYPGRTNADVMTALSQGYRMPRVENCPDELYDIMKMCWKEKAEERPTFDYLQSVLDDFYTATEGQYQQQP
UniProt Q12851: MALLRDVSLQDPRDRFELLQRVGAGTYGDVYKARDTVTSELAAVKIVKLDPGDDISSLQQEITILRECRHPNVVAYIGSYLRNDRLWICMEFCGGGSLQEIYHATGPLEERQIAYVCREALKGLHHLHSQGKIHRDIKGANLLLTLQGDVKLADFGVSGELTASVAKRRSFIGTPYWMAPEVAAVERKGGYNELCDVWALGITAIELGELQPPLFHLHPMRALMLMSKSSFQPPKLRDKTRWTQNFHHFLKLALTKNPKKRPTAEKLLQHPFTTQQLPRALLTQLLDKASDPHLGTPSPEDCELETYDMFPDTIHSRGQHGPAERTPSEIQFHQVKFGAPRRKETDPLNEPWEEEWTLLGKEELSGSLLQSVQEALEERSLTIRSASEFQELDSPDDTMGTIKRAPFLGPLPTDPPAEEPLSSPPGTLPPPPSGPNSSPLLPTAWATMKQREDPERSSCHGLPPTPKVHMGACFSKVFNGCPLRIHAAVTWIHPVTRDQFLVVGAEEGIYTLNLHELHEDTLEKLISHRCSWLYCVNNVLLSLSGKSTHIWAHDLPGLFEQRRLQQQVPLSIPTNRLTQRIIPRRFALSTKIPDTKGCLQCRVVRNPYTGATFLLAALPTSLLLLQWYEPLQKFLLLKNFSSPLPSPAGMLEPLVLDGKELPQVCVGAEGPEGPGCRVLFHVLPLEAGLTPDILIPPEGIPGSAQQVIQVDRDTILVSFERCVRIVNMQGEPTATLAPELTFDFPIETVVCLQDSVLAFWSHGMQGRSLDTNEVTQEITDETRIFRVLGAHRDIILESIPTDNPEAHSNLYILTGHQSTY
UniProt P28482, whole entry: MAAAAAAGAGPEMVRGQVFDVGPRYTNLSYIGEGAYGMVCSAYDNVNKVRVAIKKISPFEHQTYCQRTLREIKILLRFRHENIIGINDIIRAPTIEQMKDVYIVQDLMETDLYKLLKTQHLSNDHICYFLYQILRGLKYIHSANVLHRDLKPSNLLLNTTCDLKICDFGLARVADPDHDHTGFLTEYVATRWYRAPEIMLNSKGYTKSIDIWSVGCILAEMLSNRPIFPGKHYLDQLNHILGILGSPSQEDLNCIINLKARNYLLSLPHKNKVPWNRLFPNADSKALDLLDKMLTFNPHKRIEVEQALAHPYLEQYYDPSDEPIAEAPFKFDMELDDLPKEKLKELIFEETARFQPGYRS
UniProt P31152, whole entry: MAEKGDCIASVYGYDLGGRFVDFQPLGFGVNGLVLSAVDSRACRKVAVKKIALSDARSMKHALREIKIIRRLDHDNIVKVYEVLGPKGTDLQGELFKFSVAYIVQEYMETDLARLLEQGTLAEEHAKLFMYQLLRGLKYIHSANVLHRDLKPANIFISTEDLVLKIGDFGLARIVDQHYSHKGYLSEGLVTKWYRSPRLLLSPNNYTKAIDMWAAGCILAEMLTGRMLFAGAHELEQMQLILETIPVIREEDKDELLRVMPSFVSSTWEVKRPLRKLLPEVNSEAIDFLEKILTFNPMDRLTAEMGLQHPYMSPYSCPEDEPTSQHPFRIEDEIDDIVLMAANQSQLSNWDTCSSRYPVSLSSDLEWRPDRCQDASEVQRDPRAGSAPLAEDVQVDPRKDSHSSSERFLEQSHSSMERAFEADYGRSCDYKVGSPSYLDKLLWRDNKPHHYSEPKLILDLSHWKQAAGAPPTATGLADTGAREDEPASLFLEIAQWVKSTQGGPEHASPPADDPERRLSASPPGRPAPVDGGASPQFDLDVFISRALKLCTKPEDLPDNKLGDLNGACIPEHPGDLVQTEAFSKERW
UniProt P49137, whole entry, looked up: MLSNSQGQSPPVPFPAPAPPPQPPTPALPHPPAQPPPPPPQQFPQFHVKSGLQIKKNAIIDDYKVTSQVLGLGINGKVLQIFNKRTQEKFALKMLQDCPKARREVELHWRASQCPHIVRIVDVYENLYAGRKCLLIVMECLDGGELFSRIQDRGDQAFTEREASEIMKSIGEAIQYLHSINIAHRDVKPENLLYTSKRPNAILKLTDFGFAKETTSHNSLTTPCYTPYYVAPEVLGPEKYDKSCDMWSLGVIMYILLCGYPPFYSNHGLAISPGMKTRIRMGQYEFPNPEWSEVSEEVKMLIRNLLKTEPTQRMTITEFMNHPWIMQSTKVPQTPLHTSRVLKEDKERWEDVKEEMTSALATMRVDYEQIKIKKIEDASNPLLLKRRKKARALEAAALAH
UniProt Q9BUB5: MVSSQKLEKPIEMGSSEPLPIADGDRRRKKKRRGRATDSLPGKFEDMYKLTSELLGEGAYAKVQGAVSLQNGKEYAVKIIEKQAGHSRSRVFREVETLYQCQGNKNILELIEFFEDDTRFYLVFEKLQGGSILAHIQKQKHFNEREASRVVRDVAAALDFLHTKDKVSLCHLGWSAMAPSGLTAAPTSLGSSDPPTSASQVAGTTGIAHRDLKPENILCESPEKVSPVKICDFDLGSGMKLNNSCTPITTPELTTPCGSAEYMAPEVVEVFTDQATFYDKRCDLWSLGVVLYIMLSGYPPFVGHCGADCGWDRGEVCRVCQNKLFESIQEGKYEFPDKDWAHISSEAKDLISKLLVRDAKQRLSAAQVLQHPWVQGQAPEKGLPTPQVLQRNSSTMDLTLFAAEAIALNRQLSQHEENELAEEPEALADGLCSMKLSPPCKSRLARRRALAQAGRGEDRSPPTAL
UniProt Q16620, whole entry, looked up: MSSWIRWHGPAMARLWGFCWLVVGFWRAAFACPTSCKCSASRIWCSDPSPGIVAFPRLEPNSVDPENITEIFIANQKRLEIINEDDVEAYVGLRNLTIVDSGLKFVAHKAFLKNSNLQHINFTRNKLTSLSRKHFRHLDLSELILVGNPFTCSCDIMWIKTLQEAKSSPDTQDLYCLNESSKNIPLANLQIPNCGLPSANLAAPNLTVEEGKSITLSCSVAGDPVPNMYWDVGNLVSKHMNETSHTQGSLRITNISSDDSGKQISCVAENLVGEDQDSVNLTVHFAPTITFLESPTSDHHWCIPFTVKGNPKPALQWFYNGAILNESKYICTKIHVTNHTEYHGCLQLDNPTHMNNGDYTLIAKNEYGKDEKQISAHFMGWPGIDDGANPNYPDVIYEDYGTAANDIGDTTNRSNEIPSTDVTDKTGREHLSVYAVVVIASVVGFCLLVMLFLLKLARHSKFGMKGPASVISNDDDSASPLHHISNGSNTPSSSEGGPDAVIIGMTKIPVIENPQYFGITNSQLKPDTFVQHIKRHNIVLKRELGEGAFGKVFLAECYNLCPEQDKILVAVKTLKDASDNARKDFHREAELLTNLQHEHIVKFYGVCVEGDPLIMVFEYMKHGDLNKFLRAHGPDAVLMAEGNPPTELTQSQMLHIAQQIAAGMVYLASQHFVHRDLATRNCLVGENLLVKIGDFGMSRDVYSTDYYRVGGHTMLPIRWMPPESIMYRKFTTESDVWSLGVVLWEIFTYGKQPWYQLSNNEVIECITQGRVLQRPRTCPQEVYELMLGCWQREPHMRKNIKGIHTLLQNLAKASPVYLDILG
UniProt O96013: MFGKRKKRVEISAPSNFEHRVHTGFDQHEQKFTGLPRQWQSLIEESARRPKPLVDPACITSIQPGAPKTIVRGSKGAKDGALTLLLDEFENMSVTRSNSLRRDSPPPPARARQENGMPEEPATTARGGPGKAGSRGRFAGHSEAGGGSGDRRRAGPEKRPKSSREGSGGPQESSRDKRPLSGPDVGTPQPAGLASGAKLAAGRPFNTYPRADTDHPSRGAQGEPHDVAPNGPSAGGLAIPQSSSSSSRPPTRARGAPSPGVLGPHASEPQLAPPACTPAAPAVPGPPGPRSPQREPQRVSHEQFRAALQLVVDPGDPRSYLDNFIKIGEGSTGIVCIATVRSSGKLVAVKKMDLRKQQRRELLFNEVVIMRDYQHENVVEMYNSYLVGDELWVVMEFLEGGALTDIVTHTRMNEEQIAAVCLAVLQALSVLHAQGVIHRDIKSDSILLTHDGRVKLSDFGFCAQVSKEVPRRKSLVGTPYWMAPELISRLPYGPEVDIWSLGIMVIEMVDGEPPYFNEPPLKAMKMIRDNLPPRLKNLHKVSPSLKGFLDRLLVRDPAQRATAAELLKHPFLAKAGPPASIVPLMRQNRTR

What was measured:
Assay in all cases: kinase-Nluc reporter destabilization hit call (1 = scored as downregulated) (binary); higher = compound decreases kinase abundance
Settings in all cases: K562; 2-18 h
IRAK3 = IRAK3 (UniProt Q9Y616)
JAK1 = JAK1 (UniProt P23458)
LCK = LCK (UniProt P06239)
LIMK1 = LIMK1 (UniProt P53667)
LIMK2 = LIMK2 (UniProt P53671)
LMTK2 = LMTK2 (UniProt Q8IWU2)
LYN = LYN (UniProt P07948)
MAP2K1 = MAP2K1 (UniProt Q02750)
MAP2K2 = MAP2K2 (UniProt P36507)
MAP4K2 = MAP4K2 (UniProt Q12851)
MAPK1 = MAPK1 (UniProt P28482)
MAPK4 = MAPK4 (UniProt P31152)
MAPKAPK2 = MAPKAPK2 (UniProt P49137)
MKNK1 = MKNK1 (UniProt Q9BUB5)
NTRK2 = NTRK2 (UniProt Q16620)
NTRK3 = NTRK3 (UniProt Q16288)
PAK4 = PAK4 (UniProt O96013)
PBK = PBK (UniProt Q96KB5)
PDGFRB = PDGFRB (UniProt P09619)
PDK1 = PDK1 (UniProt Q15118)

Measured: kinase-Nluc reporter destabilization hit call

CC[C@H](C)[C@@H]1NC(=O)[C@@H]2CCCN2C(=O)[C@@H]2CCCN2C(=O)[C@@H]2CCCN2C(=O)[C@H](CC(C)C)NC(=O)CNC(=O)CNC(=O)[C@H](Cc2ccccc2)NC1=O [Heterophyllin B] (10 µM)
inactive: IRAK3 = 0 | JAK1 = 0 | LCK 0 | LIMK1 = 0 | LIMK2 = 0 | LMTK2 = 0 | LYN 0 | MAP2K1 = 0 | MAP2K2 = 0 | MAP4K2 = 0 | MAPK1 = 0 | MAPK4 = 0 | MAPKAPK2 = 0 | MKNK1 = 0 | NTRK2 = 0 | NTRK3 = 0 | PAK4 = 0 | PBK 0 | PDGFRB 0 | PDK1 = 0

Cc1ncc(F)c(Nc2n[nH]c3c2CN(C(=O)N2C[C@@H](C)N(CC4CCOCC4)C[C@@H]2C)C3(C)C)n1 (10 µM)
inactive: IRAK3 = 0 | JAK1 = 0 | LCK 0 | LIMK1 = 0 | LIMK2 = 0 | LMTK2 = 0 | LYN 0 | MAP2K1 = 0 | MAP2K2 = 0 | MAP4K2 = 0 | MAPK1 = 0 | MAPK4 = 0 | MAPKAPK2 = 0 | MKNK1 = 0 | NTRK2 = 0 | NTRK3 = 0 | PAK4 = 0 | PBK 0 | PDGFRB 0 | PDK1 = 0

C=CC(=O)Nc1cccc(Oc2nc(Nc3ccc(N4CCN(C)CC4)cc3)nc3ccsc23)c1 [Olmutinib] (2.5 µM)
inactive: IRAK3 = 0 | JAK1 = 0 | LCK 0 | LIMK1 = 0 | LIMK2 = 0 | LMTK2 = 0 | LYN 0 | MAP2K1 = 0 | MAP2K2 = 0 | MAP4K2 = 0 | MAPK1 = 0 | MAPK4 = 0 | MAPKAPK2 = 0 | MKNK1 = 0 | NTRK2 = 0 | NTRK3 = 0 | PAK4 = 0 | PBK 0 | PDGFRB 0 | PDK1 = 0

CCCC[C@H](CO)Nc1nc(NC)ncc1OC [Interferon receptor inducer-1] (10 µM)
inactive: IRAK3 = 0 | JAK1 = 0 | LCK 0 | LIMK1 = 0 | LIMK2 = 0 | LMTK2 = 0 | LYN 0 | MAP2K1 = 0 | MAP2K2 = 0 | MAP4K2 = 0 | MAPK1 = 0 | MAPK4 = 0 | MAPKAPK2 = 0 | MKNK1 = 0 | NTRK2 = 0 | NTRK3 = 0 | PAK4 = 0 | PBK 0 | PDGFRB 0 | PDK1 = 0

CCOC(=O)C1=C[C@]2(CC)CCCN3CCc4c(n1c1ccccc41)[C@@H]32 [Vinpocetine] (10 µM)
inactive: IRAK3 = 0 | JAK1 = 0 | LCK 0 | LIMK1 = 0 | LIMK2 = 0 | LMTK2 = 0 | LYN 0 | MAP2K1 = 0 | MAP2K2 = 0 | MAP4K2 = 0 | MAPK1 = 0 | MAPK4 = 0 | MAPKAPK2 = 0 | MKNK1 = 0 | NTRK2 = 0 | NTRK3 = 0 | PAK4 = 0 | PBK 0 | PDGFRB 0 | PDK1 = 0

C[C@@H]1CN(CC(=O)Nc2ccc3c(c2)Cc2cccc(-c4cc(=O)cc(N5CCOCC5)o4)c2S3)C[C@H](C)O1 (2.5 µM)
inactive: IRAK3 = 0 | JAK1 = 0 | LCK 0 | LIMK1 = 0 | LIMK2 = 0 | LMTK2 = 0 | LYN 0 | MAP2K1 = 0 | MAP2K2 = 0 | MAP4K2 = 0 | MAPK1 = 0 | MAPK4 = 0 | MAPKAPK2 = 0 | MKNK1 = 0 | NTRK2 = 0 | NTRK3 = 0 | PAK4 = 0 | PBK 0 | PDGFRB 0 | PDK1 = 0

O=C(Nc1nccs1)C(c1cc(F)ccc1O)N1Cc2ccc(-c3ccc(N4CCNCC4)cc3)cc2C1=O (racemic) (10 µM)
inactive: IRAK3 = 0 | JAK1 = 0 | LCK 0 | LIMK1 = 0 | LIMK2 = 0 | LMTK2 = 0 | LYN 0 | MAP2K1 = 0 | MAP2K2 = 0 | MAP4K2 = 0 | MAPK1 = 0 | MAPK4 = 0 | MAPKAPK2 = 0 | MKNK1 = 0 | NTRK2 = 0 | NTRK3 = 0 | PAK4 = 0 | PBK 0 | PDGFRB 0 | PDK1 = 0

O=C(N/N=C/c1ccc([N+](=O)[O-])o1)c1ccc(O)cc1 [Nifuroxazide] (10 µM)
inactive: IRAK3 = 0 | JAK1 = 0 | LCK 0 | LIMK1 = 0 | LIMK2 = 0 | LMTK2 = 0 | LYN 0 | MAP2K1 = 0 | MAP2K2 = 0 | MAP4K2 = 0 | MAPK1 = 0 | MAPK4 = 0 | MAPKAPK2 = 0 | MKNK1 = 0 | NTRK2 = 0 | NTRK3 = 0 | PAK4 = 0 | PBK 0 | PDGFRB 0 | PDK1 = 0

CC(C)(C)c1ccc(C(=O)Nc2cn3cc(-n4ccnc4)ccc3n2)cc1 (10 µM)
inactive: IRAK3 = 0 | JAK1 = 0 | LCK 0 | LIMK1 = 0 | LIMK2 = 0 | LMTK2 = 0 | LYN 0 | MAP2K1 = 0 | MAP2K2 = 0 | MAP4K2 = 0 | MAPK1 = 0 | MAPK4 = 0 | MAPKAPK2 = 0 | MKNK1 = 0 | NTRK2 = 0 | NTRK3 = 0 | PAK4 = 0 | PBK 0 | PDGFRB 0 | PDK1 = 0

CC(C)(C)S(=O)(=O)c1cc2c(Nc3ccc4scnc4c3)ccnc2cc1OCCOCCOCCOCCOCC(=O)Nc1cccc2c1CN(C1CCC(=O)NC1=O)C2=O (stereo not given) [PROTAC RIPK degrader-6] (10 µM)
inactive: IRAK3 = 0 | JAK1 = 0 | LCK 0 | LIMK1 = 0 | LIMK2 = 0 | LMTK2 = 0 | LYN 0 | MAP2K1 = 0 | MAP2K2 = 0 | MAP4K2 = 0 | MAPK1 = 0 | MAPK4 = 0 | MAPKAPK2 = 0 | MKNK1 = 0 | NTRK2 = 0 | NTRK3 = 0 | PAK4 = 0 | PBK 0 | PDGFRB 0 | PDK1 = 0

Arranged by count of non-hydrogen atoms (rising): part of the list above.
O=C(N/N=C/c1ccc([N+](=O)[O-])o1)c1ccc(O)cc1 [Nifuroxazide] (10 µM)
inactive: IRAK3 = 0 | JAK1 = 0 | LCK 0 | LIMK1 = 0 | LIMK2 = 0 | LMTK2 = 0 | LYN 0 | MAP2K1 = 0 | MAP2K2 = 0 | MAP4K2 = 0 | MAPK1 = 0 | MAPK4 = 0 | MAPKAPK2 = 0 | MKNK1 = 0 | NTRK2 = 0 | NTRK3 = 0 | PAK4 = 0 | PBK 0 | PDGFRB 0 | PDK1 = 0

CC(C)(C)c1ccc(C(=O)Nc2cn3cc(-n4ccnc4)ccc3n2)cc1 (10 µM)
inactive: IRAK3 = 0 | JAK1 = 0 | LCK 0 | LIMK1 = 0 | LIMK2 = 0 | LMTK2 = 0 | LYN 0 | MAP2K1 = 0 | MAP2K2 = 0 | MAP4K2 = 0 | MAPK1 = 0 | MAPK4 = 0 | MAPKAPK2 = 0 | MKNK1 = 0 | NTRK2 = 0 | NTRK3 = 0 | PAK4 = 0 | PBK 0 | PDGFRB 0 | PDK1 = 0

C[C@@H]1CN(CC(=O)Nc2ccc3c(c2)Cc2cccc(-c4cc(=O)cc(N5CCOCC5)o4)c2S3)C[C@H](C)O1 (2.5 µM)
inactive: IRAK3 = 0 | JAK1 = 0 | LCK 0 | LIMK1 = 0 | LIMK2 = 0 | LMTK2 = 0 | LYN 0 | MAP2K1 = 0 | MAP2K2 = 0 | MAP4K2 = 0 | MAPK1 = 0 | MAPK4 = 0 | MAPKAPK2 = 0 | MKNK1 = 0 | NTRK2 = 0 | NTRK3 = 0 | PAK4 = 0 | PBK 0 | PDGFRB 0 | PDK1 = 0

More structures follow.

C=CC(=O)Nc1cc(C(=O)NC)cc(-c2n[nH]c3ccccc23)c1 (10 µM)
inactive: IRAK3 = 0 | JAK1 = 0 | LCK 0 | LIMK1 = 0 | LIMK2 = 0 | LMTK2 = 0 | LYN 0 | MAP2K1 = 0 | MAP2K2 = 0 | MAP4K2 = 0 | MAPK1 = 0 | MAPK4 = 0 | MAPKAPK2 = 0 | MKNK1 = 0 | NTRK2 = 0 | NTRK3 = 0 | PAK4 = 0 | PBK 0 | PDGFRB 0 | PDK1 = 0

COc1cccc(Nc2ncnn3ccc(CN4CC[C@@H](N)[C@H](O)C4)c23)c1 (2.5 µM)
inactive: IRAK3 = 0 | JAK1 = 0 | LCK 0 | LIMK1 = 0 | LIMK2 = 0 | LMTK2 = 0 | LYN 0 | MAP2K1 = 0 | MAP2K2 = 0 | MAP4K2 = 0 | MAPK1 = 0 | MAPK4 = 0 | MAPKAPK2 = 0 | MKNK1 = 0 | NTRK2 = 0 | NTRK3 = 0 | PAK4 = 0 | PBK 0 | PDGFRB 0 | PDK1 = 0

O=C(O)/C=C/c1cc(Br)c(Br)c(Br)c1Br (10 µM)
inactive: IRAK3 = 0 | JAK1 = 0 | LCK 0 | LIMK1 = 0 | LIMK2 = 0 | LMTK2 = 0 | LYN 0 | MAP2K1 = 0 | MAP2K2 = 0 | MAP4K2 = 0 | MAPK1 = 0 | MAPK4 = 0 | MAPKAPK2 = 0 | MKNK1 = 0 | NTRK2 = 0 | NTRK3 = 0 | PAK4 = 0 | PBK 0 | PDGFRB 0 | PDK1 = 0

O=C(CC(c1ccccc1)C(C(=O)O)C(=O)O)c1ccc(C(F)(F)F)cc1 (stereo not given) (10 µM)
inactive: IRAK3 = 0 | JAK1 = 0 | LCK 0 | LIMK1 = 0 | LIMK2 = 0 | LMTK2 = 0 | LYN 0 | MAP2K1 = 0 | MAP2K2 = 0 | MAP4K2 = 0 | MAPK1 = 0 | MAPK4 = 0 | MAPKAPK2 = 0 | MKNK1 = 0 | NTRK2 = 0 | NTRK3 = 0 | PAK4 = 0 | PBK 0 | PDGFRB 0 | PDK1 = 0

CC1=C(C(=O)Nc2ccc3[nH]ncc3c2)C(c2ccc(F)c(C(=O)NCc3ccccn3)c2)NC(=O)N1 (stereo not given) (10 µM)
inactive: IRAK3 = 0 | JAK1 = 0 | LCK 0 | LIMK1 = 0 | LIMK2 = 0 | LMTK2 = 0 | LYN 0 | MAP2K1 = 0 | MAP2K2 = 0 | MAP4K2 = 0 | MAPK1 = 0 | MAPK4 = 0 | MAPKAPK2 = 0 | MKNK1 = 0 | NTRK2 = 0 | NTRK3 = 0 | PAK4 = 0 | PBK 0 | PDGFRB 0 | PDK1 = 0

C[C@H](CC[C@@H](O)C(C)(C)O)[C@H]1CC[C@@]2(C)[C@@H]3CC=C4[C@@H](CC[C@H](O)C4(C)C)[C@]3(C)[C@H](O)C[C@]12C [Mogrol] (10 µM)
inactive: IRAK3 = 0 | JAK1 = 0 | LCK 0 | LIMK1 = 0 | LIMK2 = 0 | LMTK2 = 0 | LYN 0 | MAP2K1 = 0 | MAP2K2 = 0 | MAP4K2 = 0 | MAPK1 = 0 | MAPK4 = 0 | MAPKAPK2 = 0 | MKNK1 = 0 | NTRK2 = 0 | NTRK3 = 0 | PAK4 = 0 | PBK 0 | PDGFRB 0 | PDK1 = 0
